# Results reported in the supplement of paper PMC6411743.
# Amino acid sequences for entries named in this document (tags omitted). A change or cut given only in a name is not applied to a line headed by its entry.
# UniProt Q86U38: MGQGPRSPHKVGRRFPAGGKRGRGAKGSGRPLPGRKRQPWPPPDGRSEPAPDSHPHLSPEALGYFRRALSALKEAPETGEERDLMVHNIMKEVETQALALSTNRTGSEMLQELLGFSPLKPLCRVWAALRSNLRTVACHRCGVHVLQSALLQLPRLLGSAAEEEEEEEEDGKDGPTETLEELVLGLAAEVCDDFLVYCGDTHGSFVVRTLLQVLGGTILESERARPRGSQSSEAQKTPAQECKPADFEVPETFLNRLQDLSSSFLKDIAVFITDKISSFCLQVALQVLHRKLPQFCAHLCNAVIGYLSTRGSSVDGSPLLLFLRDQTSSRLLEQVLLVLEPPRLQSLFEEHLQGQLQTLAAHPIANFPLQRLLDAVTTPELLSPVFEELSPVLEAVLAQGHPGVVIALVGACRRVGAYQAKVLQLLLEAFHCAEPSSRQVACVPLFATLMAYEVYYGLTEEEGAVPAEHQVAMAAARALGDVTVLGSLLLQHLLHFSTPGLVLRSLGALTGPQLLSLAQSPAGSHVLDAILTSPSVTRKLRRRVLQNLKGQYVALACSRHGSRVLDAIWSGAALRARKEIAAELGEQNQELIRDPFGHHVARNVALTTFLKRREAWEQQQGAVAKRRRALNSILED
# UniProt Q86XL3: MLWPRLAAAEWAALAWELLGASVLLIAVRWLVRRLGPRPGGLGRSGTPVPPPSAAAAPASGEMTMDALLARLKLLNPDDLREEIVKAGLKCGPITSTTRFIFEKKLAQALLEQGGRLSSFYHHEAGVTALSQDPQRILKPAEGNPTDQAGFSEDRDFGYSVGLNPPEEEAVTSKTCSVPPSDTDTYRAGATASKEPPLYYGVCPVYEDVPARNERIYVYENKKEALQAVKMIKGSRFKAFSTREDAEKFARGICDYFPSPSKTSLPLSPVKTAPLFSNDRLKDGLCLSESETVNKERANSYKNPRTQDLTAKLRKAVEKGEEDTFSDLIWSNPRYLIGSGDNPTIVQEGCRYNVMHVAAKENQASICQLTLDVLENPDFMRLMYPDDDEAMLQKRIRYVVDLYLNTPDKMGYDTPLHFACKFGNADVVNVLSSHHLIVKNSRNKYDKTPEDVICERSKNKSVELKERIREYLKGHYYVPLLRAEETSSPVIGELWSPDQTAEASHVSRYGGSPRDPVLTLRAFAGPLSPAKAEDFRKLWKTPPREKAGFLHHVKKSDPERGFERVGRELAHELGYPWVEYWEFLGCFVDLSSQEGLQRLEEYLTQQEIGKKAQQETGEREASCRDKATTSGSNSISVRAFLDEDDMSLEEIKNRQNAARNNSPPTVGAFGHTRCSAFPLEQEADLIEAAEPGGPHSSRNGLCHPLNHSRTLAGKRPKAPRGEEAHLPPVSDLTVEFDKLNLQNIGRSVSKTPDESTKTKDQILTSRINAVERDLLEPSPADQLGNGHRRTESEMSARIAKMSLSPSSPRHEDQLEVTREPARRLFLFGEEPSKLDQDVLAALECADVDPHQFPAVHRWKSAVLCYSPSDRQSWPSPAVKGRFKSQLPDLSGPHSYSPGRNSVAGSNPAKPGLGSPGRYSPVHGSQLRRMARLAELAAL
# UniProt Q86V85: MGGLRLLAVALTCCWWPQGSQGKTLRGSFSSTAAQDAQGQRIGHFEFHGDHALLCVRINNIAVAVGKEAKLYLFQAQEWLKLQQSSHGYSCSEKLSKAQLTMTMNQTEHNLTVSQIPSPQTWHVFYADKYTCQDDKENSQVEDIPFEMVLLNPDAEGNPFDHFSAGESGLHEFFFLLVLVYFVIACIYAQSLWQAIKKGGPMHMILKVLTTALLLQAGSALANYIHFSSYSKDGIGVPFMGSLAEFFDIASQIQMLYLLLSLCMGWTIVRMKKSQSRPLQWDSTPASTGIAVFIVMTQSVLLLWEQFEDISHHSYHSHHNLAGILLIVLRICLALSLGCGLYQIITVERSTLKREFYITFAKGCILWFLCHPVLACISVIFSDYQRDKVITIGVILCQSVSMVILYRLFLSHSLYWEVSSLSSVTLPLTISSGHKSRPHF
# UniProt Q8N2Z9: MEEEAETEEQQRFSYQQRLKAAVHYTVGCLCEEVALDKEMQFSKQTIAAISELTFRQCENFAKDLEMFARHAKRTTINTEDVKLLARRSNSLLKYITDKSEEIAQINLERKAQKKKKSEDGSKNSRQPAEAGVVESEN
# UniProt Q86SF2: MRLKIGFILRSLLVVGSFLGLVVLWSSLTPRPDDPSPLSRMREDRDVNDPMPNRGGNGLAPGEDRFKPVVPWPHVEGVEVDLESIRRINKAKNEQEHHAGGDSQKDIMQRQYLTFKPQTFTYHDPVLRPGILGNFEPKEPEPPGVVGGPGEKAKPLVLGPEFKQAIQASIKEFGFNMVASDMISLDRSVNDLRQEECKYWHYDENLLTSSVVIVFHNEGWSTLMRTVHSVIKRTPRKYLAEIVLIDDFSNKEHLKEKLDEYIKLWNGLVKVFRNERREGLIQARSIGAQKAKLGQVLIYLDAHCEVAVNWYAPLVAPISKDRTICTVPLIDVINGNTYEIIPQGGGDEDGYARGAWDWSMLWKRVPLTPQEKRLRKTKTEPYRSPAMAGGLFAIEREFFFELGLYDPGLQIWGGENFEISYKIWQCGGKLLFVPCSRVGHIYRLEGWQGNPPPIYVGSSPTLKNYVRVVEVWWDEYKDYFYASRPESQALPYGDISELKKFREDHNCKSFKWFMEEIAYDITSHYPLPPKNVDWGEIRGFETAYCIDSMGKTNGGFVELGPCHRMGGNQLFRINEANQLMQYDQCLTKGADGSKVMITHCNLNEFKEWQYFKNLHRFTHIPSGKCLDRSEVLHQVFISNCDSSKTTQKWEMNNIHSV
# UniProt Q8IY17: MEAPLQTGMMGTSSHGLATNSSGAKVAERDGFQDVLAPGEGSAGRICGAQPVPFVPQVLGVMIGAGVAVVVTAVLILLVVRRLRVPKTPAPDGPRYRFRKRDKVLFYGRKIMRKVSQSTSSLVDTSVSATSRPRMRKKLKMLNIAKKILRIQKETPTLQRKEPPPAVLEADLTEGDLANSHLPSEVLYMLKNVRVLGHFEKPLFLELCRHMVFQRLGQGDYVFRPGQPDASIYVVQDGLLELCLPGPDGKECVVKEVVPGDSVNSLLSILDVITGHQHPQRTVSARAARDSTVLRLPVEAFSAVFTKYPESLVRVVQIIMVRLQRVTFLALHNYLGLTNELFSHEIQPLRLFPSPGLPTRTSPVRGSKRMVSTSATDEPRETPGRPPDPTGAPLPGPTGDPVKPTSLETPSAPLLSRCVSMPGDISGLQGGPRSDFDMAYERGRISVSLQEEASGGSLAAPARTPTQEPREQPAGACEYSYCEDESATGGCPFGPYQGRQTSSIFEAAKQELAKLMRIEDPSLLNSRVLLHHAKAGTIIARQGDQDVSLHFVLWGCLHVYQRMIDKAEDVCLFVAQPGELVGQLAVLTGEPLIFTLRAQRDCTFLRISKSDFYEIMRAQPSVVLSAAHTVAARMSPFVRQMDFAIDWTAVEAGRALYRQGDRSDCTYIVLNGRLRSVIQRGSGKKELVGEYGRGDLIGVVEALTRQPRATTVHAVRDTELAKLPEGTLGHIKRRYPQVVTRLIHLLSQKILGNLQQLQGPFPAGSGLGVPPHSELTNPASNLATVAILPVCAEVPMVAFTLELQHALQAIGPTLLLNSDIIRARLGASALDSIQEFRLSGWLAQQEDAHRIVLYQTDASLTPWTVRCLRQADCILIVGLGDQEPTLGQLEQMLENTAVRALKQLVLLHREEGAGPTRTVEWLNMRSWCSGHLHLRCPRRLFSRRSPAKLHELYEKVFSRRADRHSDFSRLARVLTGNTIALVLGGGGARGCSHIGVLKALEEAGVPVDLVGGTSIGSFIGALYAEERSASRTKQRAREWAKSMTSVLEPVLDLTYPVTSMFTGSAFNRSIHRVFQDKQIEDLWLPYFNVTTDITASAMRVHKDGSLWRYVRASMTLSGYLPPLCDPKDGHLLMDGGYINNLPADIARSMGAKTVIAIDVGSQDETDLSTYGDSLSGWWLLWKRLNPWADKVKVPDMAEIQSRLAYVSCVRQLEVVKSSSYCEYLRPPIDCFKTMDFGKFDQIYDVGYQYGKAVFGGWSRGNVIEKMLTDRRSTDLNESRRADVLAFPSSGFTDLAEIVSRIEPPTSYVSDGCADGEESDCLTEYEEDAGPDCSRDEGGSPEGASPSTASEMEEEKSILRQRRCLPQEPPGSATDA
# UniProt Q8N6G5: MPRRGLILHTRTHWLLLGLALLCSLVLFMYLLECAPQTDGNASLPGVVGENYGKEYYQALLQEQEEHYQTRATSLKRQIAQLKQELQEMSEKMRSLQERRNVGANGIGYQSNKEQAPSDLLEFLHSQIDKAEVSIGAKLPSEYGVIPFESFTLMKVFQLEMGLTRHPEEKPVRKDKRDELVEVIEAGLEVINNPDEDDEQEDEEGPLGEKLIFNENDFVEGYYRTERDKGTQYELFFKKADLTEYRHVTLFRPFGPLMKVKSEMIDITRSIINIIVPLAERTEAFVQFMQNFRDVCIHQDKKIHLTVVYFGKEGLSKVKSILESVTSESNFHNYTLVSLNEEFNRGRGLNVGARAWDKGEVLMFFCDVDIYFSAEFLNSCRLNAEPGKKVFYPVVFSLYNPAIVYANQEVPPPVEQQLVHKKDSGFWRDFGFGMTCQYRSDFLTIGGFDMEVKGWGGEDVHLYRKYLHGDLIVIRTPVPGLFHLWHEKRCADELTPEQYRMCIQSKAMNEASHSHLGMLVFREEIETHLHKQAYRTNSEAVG
# UniProt Q86W50: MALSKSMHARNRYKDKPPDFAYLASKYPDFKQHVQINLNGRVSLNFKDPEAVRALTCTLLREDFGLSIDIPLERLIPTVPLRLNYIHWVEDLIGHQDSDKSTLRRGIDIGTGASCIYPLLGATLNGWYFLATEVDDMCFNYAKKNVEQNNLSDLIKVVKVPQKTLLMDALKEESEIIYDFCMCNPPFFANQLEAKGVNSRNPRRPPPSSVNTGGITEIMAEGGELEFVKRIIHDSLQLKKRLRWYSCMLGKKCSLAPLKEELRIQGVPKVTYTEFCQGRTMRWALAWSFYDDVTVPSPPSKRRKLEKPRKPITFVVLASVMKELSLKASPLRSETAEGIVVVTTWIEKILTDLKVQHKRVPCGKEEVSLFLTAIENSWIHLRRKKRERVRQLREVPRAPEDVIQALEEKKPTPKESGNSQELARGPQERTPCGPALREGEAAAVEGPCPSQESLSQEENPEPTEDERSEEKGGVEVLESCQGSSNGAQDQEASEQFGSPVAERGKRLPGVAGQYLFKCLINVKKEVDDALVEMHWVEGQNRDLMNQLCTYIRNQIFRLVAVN
# UniProt Q8N511: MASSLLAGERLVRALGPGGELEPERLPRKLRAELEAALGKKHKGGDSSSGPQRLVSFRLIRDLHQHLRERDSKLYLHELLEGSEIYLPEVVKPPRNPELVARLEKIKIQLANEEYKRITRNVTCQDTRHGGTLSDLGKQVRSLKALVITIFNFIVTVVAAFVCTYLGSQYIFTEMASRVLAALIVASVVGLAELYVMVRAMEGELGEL
# UniProt Q8IXB1: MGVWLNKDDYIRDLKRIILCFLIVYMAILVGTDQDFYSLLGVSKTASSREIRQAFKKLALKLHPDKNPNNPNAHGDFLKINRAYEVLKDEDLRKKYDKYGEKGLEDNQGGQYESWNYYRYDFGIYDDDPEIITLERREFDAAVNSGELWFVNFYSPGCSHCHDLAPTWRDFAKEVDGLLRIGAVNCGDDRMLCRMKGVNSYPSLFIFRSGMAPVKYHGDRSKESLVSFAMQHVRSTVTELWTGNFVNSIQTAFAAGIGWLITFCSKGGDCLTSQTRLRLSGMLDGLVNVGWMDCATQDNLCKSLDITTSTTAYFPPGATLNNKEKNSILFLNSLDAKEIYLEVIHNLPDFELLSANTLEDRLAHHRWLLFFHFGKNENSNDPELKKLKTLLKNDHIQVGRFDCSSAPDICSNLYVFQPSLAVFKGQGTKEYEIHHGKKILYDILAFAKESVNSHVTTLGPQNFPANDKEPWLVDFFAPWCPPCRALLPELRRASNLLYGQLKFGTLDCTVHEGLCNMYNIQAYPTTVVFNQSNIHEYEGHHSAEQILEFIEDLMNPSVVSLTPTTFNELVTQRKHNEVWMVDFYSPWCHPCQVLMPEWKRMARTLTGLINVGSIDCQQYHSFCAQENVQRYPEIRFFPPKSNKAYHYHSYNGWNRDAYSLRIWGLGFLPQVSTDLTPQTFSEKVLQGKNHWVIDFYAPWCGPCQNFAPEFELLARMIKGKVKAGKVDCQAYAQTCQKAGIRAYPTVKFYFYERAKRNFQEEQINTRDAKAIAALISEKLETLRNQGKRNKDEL
# UniProt Q86YS6: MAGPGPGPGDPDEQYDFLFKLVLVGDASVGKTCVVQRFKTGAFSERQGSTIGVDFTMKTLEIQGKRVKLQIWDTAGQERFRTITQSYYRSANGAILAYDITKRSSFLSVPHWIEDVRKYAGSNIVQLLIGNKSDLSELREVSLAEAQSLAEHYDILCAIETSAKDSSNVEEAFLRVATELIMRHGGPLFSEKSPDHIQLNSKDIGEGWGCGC
# ± gives the standard deviation of the averaged measurements. This is a selection; strong and weak results do not stand in their true shares.
# Compound: Nc1ncnc2c1ncn2[C@@H]1O[C@H](COP(=O)(O)OP(=O)(O)NP(=O)(O)O)[C@@H](O)[C@H]1O [adenylyl imidodiphosphate]
# Assay: NP40-soluble protein abundance relative to vehicle (solubility fold change) (ratio); higher = more soluble protein in presence of AMP-PNP
# How it was run: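 Data come from three independent experiments in which Dounce-homogenised Jurkat crude lysate was treated at eight concentrations from 0.1 to 10 mM. Treatment ran 10 min at room temperature and then 3 min at 37 °C, after which 0.8% NP40 and benzonase were added for 60 min at 4 °C before ultracentrifugation. The supernatant underwent TMT labelling and LC-MS/MS, and vsn-normalised intensities were expressed as fold change against the detergent-processed vehicle in each replicate.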
Target,NP40-soluble protein abundance (concentration: 1mM),NP40-soluble protein abundance (concentration: 2mM),NP40-soluble protein abundance (concentration: 4mM),NP40-soluble protein abundance (concentration: 6mM),NP40-soluble protein abundance (concentration: 8mM),NP40-soluble protein abundance (concentration: 10mM)
MRPL41 (UniProt Q8IXM3),0.973 ± 0.047,0.997 ± 0.033,0.932 ± 0.038,0.915 ± 0.11,0.892 ± 0.078,0.904 ± 0.079
UniProt Q8N122 and related entries,1.01 ± 0.031,0.955 ± 0.021,0.985 ± 0.011,0.972 ± 0.013,0.967 ± 0.018,0.994 ± 0.034
UniProt Q86U38,1 ± 0.038,0.968 ± 0.034,1.07 ± 0.022,1.05 ± 0.036,1.06 ± 0.02,1.04 ± 0.045
UniProt Q8IYB5-2|Q8IYB5-3,0.988 ± 0.028,0.986 ± 0.011,1.01 ± 0.031,0.995 ± 0.038,0.995 ± 0.025,1.01 ± 0.015
UniProt Q86XL3 and related entries,0.997 ± 0.03,1.01 ± 0.04,1.02 ± 0.047,1.01 ± 0.029,0.982 ± 0.049,1.02 ± 0.038
GPR180 (UniProt Q86V85),0.949 ± 0.019,0.999 ± 0.039,0.939 ± 0.014,1 ± 0.057,0.972 ± 0.048,1.01 ± 0.019
UniProt Q8N2Z9,0.955 ± 0.054,0.966 ± 0.05,0.943 ± 0.034,0.954 ± 0.019,0.934 ± 0.061,0.936 ± 0.055
UniProt Q8IZ73 and related entries,1.04 ± 0.019,1.05 ± 0.04,1.04 ± 0.029,1 ± 0.015,0.9969 ± 0.0043,0.984 ± 0.016
UniProt Q8N684 and related entries,1.05 ± 0.036,1.1 ± 0.055,1.07 ± 0.016,1.11 ± 0.036,1.11 ± 0.029,1.19 ± 0.037
UniProt Q86UY6,1.04 ± 0.06,1.1 ± 0.045,1.15 ± 0.077,1.15 ± 0.069,1.19 ± 0.087,1.23 ± 0.077
GALNT7 (UniProt Q86SF2),0.995 ± 0.014,0.92 ± 0.11,0.985 ± 0.04,0.956 ± 0.024,0.969 ± 0.034,0.92 ± 0.026
THNSL1 (UniProt Q8IYQ7),0.995 ± 0.068,0.965 ± 0.08,1.01 ± 0.071,0.96 ± 0.031,0.989 ± 0.048,0.958 ± 0.048
ANKRD13A (UniProt Q8IZ07),0.985 ± 0.017,0.981 ± 0.013,1.04 ± 0.029,1.06 ± 0.061,1.04 ± 0.03,1.08 ± 0.047
UniProt Q8IXQ6-2|Q8IXQ6-3|G5E9U8 and related entries,0.9923 ± 0.0056,0.9832 ± 0.0065,1.03 ± 0.018,1 ± 0.049,1.03 ± 0.04,0.999 ± 0.069
UniProt Q8IY17 and related entries,1.02 ± 0.029,1 ± 0.063,1.04 ± 0.037,1.02 ± 0.033,0.9697 ± 0.0062,0.988 ± 0.04
UniProt Q86X83 and related entries,1.01 ± 0.038,0.928 ± 0.062,0.965 ± 0.049,0.972 ± 0.027,1.01 ± 0.055,0.967 ± 0.058
UniProt Q8N6G5 and related entries,0.923 ± 0.052,0.901 ± 0.069,0.896 ± 0.057,0.909 ± 0.044,0.872 ± 0.047,0.926 ± 0.08
UniProt Q86W50,0.984 ± 0.057,0.948 ± 0.052,1.02 ± 0.052,1.01 ± 0.039,1.01 ± 0.075,0.965 ± 0.091
UniProt Q8N511 and related entries,1.01 ± 0.022,1.03 ± 0.045,1.032 ± 0.0041,1.07 ± 0.023,1.09 ± 0.018,1.07 ± 0.026
UniProt Q86W42 and related entries,1.17 ± 0.087,1.25 ± 0.065,1.36 ± 0.11,1.49 ± 0.1,1.65 ± 0.18,1.67 ± 0.27
DHX37 (UniProt Q8IY37),1.06 ± 0.044,1.08 ± 0.056,1.12 ± 0.022,1.1 ± 0.05,1.15 ± 0.073,1.17 ± 0.079
UniProt Q8IUI8 and related entries,0.977 ± 0.018,0.943 ± 0.051,0.964 ± 0.012,0.979 ± 0.06,0.986 ± 0.044,0.946 ± 0.055
UBE2Q1 (UniProt Q7Z7E8),1.01 ± 0.013,1.06 ± 0.037,1.02 ± 0.053,0.995 ± 0.017,0.982 ± 0.026,1.01 ± 0.033
UniProt Q8IXB1 and related entries,0.969 ± 0.035,0.923 ± 0.061,0.943 ± 0.032,0.971 ± 0.033,0.97 ± 0.022,0.972 ± 0.046
UniProt Q8IXQ5 and related entries,0.984 ± 0.042,0.979 ± 0.018,0.974 ± 0.029,0.9744 ± 0.0094,0.983 ± 0.044,0.9769 ± 0.0044
ZBTB2 (UniProt Q8N680),0.994 ± 0.042,1.01 ± 0.033,1.03 ± 0.061,0.976 ± 0.054,0.997 ± 0.053,0.998 ± 0.076
RAB43 (UniProt Q86YS6),0.972 ± 0.035,0.915 ± 0.075,0.995 ± 0.025,1.01 ± 0.081,1.03 ± 0.038,0.988 ± 0.013
UniProt Q86UW6 and related entries,1.03 ± 0.047,1.03 ± 0.037,1.01 ± 0.053,0.977 ± 0.061,0.945 ± 0.044,0.953 ± 0.053
UniProt Q8IZH2 and related entries,1.03 ± 0.013,0.981 ± 0.064,1.03 ± 0.022,0.993 ± 0.06,1 ± 0.037,1 ± 0.072
UniProt Q8N2F6 and related entries,0.993 ± 0.045,1.08 ± 0.11,0.99 ± 0.056,1 ± 0.051,0.969 ± 0.066,0.94 ± 0.071

# Just NP40-soluble protein abundance (concentration: 8mM), NP40-soluble protein abundance (concentration: 4mM) and NP40-soluble protein abundance (concentration: 2mM) (2 entries from above):
Target	NP40-soluble protein abundance (concentration: 8mM)	NP40-soluble protein abundance (concentration: 4mM)	NP40-soluble protein abundance (concentration: 2mM)
GALNT7 (UniProt Q86SF2)	0.969 ± 0.034	0.985 ± 0.04	0.92 ± 0.11
ZBTB2 (UniProt Q8N680)	0.997 ± 0.053	1.03 ± 0.061	1.01 ± 0.033
